Among the data in patent publication US20040152665A1, “Amelioration of decreased weight and growth by n-acylated glucosamines” (priority 2003, published 2004) are mean water consumption values, retold here.

The data set can be described thus: Experiment 2: weight gain of rats restricted to 10 g (later 15 g) chow/day, supplement dissolved in water then solid. It is filed as in vivo, Sprague Dawley male rats. As to conditions: water containing 20 mg/mL compound, first eight days; differences not statistically significant. The method, then: The animals were maintained in metabolic cages for the duration of the study (FIG. 2). Parameters of behavior and physical appearance were observed daily for any indications of toxicological complications. Twelve Sprague Dawley male rats were restricted to 10 g of Purina Rat Chow per day for eight days. Treatment groups were provided with water containing 20 mg/mL GlcN or GlcNBu. Daily volumes of urine produced and water consumed were recorded. The mean water consumption (ml/day) for the three groups was: 22.80, 24.45 and 21.45 for the control, the GlcN-supplemented and the GlcNBu-supplemented groups, respectively. These values were not statistically significant. On day nine of the study, untreated water was provided and the mass of rat chow given daily was increased to 15 g, supplemented with an additional 1.0 g of solid treatment compound. On day 18, the animals were sacrificed by CO2 asphyxiation and their organs were inspected for damage.

Molecules are shown by their SMILES.

`N[C@H]1C(O)O[C@H](CO)[C@@H](O)[C@@H]1O` (some centres unmarked) [GlcN, glucosamine] gave a mean water consumption of 24.45 mL/day.

For the molecule `CCCC(=O)N[C@H]1C(O)O[C@H](CO)[C@@H](O)[C@@H]1O` (stereo partly drawn) [GlcNBu, N-butyryl-D-glucosamine], the mean water consumption turned out to be 21.45 mL/day.
